Reference: paper PMC2815737
Results are given in words; binding and its absence hold for the method and conditions named. In cells and extracts the contact can be indirect. Some binding calls cover weakened binding; strength is not graded here.

Amino acid sequences for entries named in this document (tags omitted).
UniProt O35099: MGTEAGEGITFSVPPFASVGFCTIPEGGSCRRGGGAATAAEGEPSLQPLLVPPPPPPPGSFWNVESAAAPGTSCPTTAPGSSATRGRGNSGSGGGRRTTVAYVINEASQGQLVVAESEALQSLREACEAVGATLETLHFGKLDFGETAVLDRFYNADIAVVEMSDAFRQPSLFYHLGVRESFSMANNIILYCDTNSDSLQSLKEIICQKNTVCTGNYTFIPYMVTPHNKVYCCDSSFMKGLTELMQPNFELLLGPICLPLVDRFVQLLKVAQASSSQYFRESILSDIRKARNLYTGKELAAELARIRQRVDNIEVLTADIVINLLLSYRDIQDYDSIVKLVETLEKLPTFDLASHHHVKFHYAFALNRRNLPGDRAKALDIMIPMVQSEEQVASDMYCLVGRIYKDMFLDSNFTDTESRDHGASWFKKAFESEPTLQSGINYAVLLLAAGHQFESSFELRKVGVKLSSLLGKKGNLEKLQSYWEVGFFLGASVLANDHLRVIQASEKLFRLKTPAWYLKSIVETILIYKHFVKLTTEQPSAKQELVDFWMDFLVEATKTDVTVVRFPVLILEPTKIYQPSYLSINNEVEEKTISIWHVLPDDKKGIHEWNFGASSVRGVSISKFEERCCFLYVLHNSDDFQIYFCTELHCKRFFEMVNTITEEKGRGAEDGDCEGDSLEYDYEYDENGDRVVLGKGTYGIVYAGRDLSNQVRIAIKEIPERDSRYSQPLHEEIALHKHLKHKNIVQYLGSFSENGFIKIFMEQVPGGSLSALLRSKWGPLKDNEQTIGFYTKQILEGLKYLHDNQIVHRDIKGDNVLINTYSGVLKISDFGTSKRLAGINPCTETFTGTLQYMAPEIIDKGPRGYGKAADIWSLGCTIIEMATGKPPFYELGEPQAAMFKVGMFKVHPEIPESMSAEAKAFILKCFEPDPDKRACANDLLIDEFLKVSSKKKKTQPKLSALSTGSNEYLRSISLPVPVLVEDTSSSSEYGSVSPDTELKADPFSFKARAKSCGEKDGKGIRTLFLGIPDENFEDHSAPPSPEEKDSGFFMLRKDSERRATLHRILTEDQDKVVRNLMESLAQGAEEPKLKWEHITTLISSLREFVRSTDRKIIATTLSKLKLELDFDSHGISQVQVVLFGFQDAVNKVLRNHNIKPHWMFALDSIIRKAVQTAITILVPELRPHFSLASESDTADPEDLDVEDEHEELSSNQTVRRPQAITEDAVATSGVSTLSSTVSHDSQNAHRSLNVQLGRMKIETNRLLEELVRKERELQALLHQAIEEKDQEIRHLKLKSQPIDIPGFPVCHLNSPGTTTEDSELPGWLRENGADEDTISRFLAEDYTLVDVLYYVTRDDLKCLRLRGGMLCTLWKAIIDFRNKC

Key:
[1] = biological target: ASK1 (mouse (endogenous in tail fibroblasts)) (UniProt O35099); assay: co-IP; anti-ASK1 antibody with protein A agarose on 200 ug pooled fibroblast protein from 3 samples, 4 C overnight, beads washed 4x with PBS, Trx detected by Western blot; young (4-6 mos) wild-type and Ames dwarf fibroblasts, untreated or treated with rotenone (5 or 20 uM, 60 min), 20 mM 3-NPA, antimycin A (50 uM, 120 min) or, in dwarf cells, H2O2 (1 mM, 30 min)
[2] = biological target: ASK1 (mouse (endogenous in tail fibroblasts)) (UniProt O35099); assay: co-IP; as a1, but young wild-type fibroblasts treated with 1 mM H2O2 for 30 min before extraction

B1: thioredoxin (protein, UniProt P10639 1-105)
chain: MVKLIESKEAFQEALAAAGDKLVVVDFSATWCGPCKMIKPFFHSLCDKYSNVVFLEVDVDDCQDVAADCEVKCMPTFQFYKKGQKVGEFSGANKEKLEASITEYA
With B1 the binding [1] was “binds” and the binding [2] was “binds weakly”.
